# In PubChem BioAssay AID540276 (National Center for Advancing Translational Sciences (NCATS), 2011):
# The whole screen tested about 300,000 compounds, of which about 5,400 (1.8%) were called active. The shares of active, inactive and inconclusive entries below differ from those in the screen. Calls come from the whole dose curve; tested in HEK293 cells. Where the call is inconclusive, the potency comes from a doubtful curve fit.
# Experiment: qHTS for inhibitors of binding or entry into cells for Marburg Virus
# Details: Marburg virus pseudotyped entry inhibition, cell reporter; activity change, negative = inhibition: at 37.8 µM (top of the series) unless noted
# % is set by controls: 0 for no effect and ±100 for the full control effect; potency is the fitted concentration of half-maximal effect.
SMILES,Potency,"activity change, negative = inhibition"
O=C(c1ccccc1F)N1CCN(c2ccc([N+](=O)[O-])c3ncccc23)CC1,"inconclusive: 11.2 µM [inhibitor, partial curve, poor fit]",–
CCCCOc1ccc(/C=C/C(=O)N(CC)CC(=O)Nc2ccc3c(c2)OCCO3)cc1OC,"inconclusive: 35.5 µM [inhibitor, single point]",–
N#CCCCCn1ccc(NC(=O)c2ccc(Cl)cc2O)n1,–,inactive: -16.7%
O=C(CSc1nnc(Cc2cccs2)n1-c1ccccc1)Nc1ccc2c(c1)OCCO2,"inconclusive: 35.5 µM [inhibitor, single point]",–
CCCCc1ccc(S(=O)(=O)N/N=C(/C)c2ccncc2)cc1,–,inactive: 0.472%
Cc1ccnc(Nc2nc(-c3c(C)nc4sccn34)cs2)c1,–,inactive: -29.2%
CC(C)(C)NC(=O)CSc1nnnn1C(C)(C)C,–,inactive: 25.9%
Cc1cc(NS(=O)(=O)c2ccccc2)c(C)c(Cl)c1O,"inconclusive: 35.5 µM [inhibitor, single point]",–
Cc1ccc(NC(=S)NCc2cccs2)cc1,"inconclusive: 0.282 µM [activator, partial curve, poor fit]",–
Cc1ccc(-c2nnn(CC(=O)N(CC(=O)NCC3CCCO3)c3ccccc3)n2)o1 (configuration not stated),"inconclusive: 6.51 µM [inhibitor, partial curve, poor fit]",–
COc1ccc(CSCC(=O)N/N=C/c2ccc(OCC(=O)NCc3ccco3)cc2)cc1,"inconclusive: 11.2 µM [inhibitor, partial curve, poor fit]",–
CCOC(=O)C1CCCN(c2nc3ccccc3nc2C(C#N)C(=O)OCCOC)C1 (configuration not stated),–,inactive: -23.4%
COc1ccc(/C=C(\C#N)C(=O)Nc2cccnc2)cc1,–,inconclusive: 2.45% [activator]
COc1cc(C2NCCC(=O)C2(C)C)cc(OC)c1OC (configuration not stated),"inconclusive: 0.316 µM [inhibitor, single point]",–
CC1CC(C)CN(CCCn2c(=S)[nH]c3ccccc3c2=O)C1 (configuration not stated),"inconclusive: 22.4 µM [inhibitor, single point]",–
CCn1c(SCC(=O)Nc2ccc(OC)cc2)nc2nc3c(cc2c1=O)CCCC3,"inconclusive: 22.4 µM [inhibitor, single point]",–
CC1CCCC(C)N1C(=O)Cn1cc(/C=C2/C(=O)Nc3ccccc32)c2ccccc21 (configuration not stated),"inconclusive: 35.5 µM [inhibitor, single point]",–
COc1ccc(NC(=O)c2ccco2)cc1NC(=O)COc1ccc(Cl)c(C)c1,–,inactive: 1.47% [at 46.1 µM]
COc1ccc(-c2ccc(-c3nnn(CC(C)=O)n3)cc2)cc1,–,inactive: 0.216%
COc1ccc(C(=S)NCS(=O)(=O)c2ccc(C)cc2)cc1,"inconclusive: 20 µM [activator, single point]",–
CCC(=O)Nc1ccc2oc(-c3cccnc3)nc2c1,–,inactive: 6.31%
CCCCNc1nc(=S)n(-c2ccccc2)c(C)c1C(C)=O,"inconclusive: 25.1 µM [inhibitor, single point]",–
CCOc1nc(Oc2cccc(C(=O)O)c2)nc(Oc2cccc(C(=O)O)c2)n1,–,inactive: -1.84%
O=C(NC1CC1)c1ccc(N2CCCCC2)c([N+](=O)[O-])c1,"inconclusive: 2.51 µM [activator, full curve, poor fit]",–

SMILES,Potency,"activity change, negative = inhibition"
OCC#CCSc1nnc(-c2ccc(Br)cc2)o1,–,inactive: -0.44%
Cc1cccc(C)c1NC(=O)CCCCCC1NC(=O)NC1C (configuration not stated),–,inactive: 13.2% [at 46.1 µM]
S=C(NCCc1ccccc1)N1CCN(C23CC4CC(CC(C4)C2)C3)CC1,"inconclusive: 12.6 µM [inhibitor, partial curve, poor fit]",–
N#CC1=C2N=C(N)c3ccccc3N2C2=C(C(=O)CCC2)C1c1cccc(Cl)c1 (configuration not stated),"inconclusive: 29.1 µM [inhibitor, single point]",–
CC1CCCN(C/C(O)=C(\C#N)c2nc3ccccc3[nH]2)C1 (configuration not stated),"inconclusive: 0.316 µM [activator, partial curve, poor fit]",–
C/C(N)=C(/C#N)C(=O)COC(=O)c1cc(-c2cccc3ccccc23)nc2ccccc12,–,inactive: -22.2%
CCOC(=O)Cn1cc(Cl)c(=O)c(Cl)c1,"inconclusive: 6.31 µM [inhibitor, single point]",–
Cc1ccc(/C(=N/Nc2ncnc3ccccc23)C(=O)O)cc1,–,inactive: -24.8% [at 46.1 µM]
CCOc1ncnc2c1[nH]c1ccccc12,"inconclusive: 1.41 µM [inhibitor, partial curve, poor fit]",–
O=C(CN(C(=O)CSc1nc2ccccc2o1)c1ccccc1)NC1CCCCC1,"inconclusive: 29.1 µM [inhibitor, single point]",–
CC(SCc1cc(=O)n2c([nH]c3ccccc32)c1C#N)C(=O)O (configuration not stated),"inconclusive: 6.31 µM [inhibitor, single point]",–
CCOc1ccc2nc(NC(=S)NCc3ccccc3)sc2c1,"inconclusive: 25.9 µM [inhibitor, single point]",–
Fc1ccc(-c2ccc(/C=N\n3cnnc3)o2)cc1Cl,"inconclusive: 6.31 µM [activator, single point]",–
O=C(NC1CCCc2c1cnn2-c1ccc(F)cc1F)c1ccccc1N1CCOCC1 (configuration not stated),"inconclusive: 25.1 µM [inhibitor, single point]",–
Cc1ccccc1OCC(=O)Nc1cccc(N(C)S(C)(=O)=O)c1,–,inactive: -0.175%
Cc1csc(=Nc2ccccc2)n1C,–,inactive: 7.16% [at 46.1 µM]
Cc1ccc(C2(c3ccc(C)cc3)CC2C(=O)Nc2ccc([N+](=O)[O-])cc2O)cc1 (configuration not stated),"inconclusive: 31.6 µM [inhibitor, partial curve, poor fit]",–
COc1ccc(C2C(C(=O)NC(C)C)c3ccccc3C(=O)N2C)cc1OC (configuration not stated),"inconclusive: 35.5 µM [activator, single point]",–
COc1cc(NC(=O)CCc2ccccc2)nc(OC)n1,"inconclusive: 18.3 µM [activator, single point]",–
COc1ccc(S(=O)(=O)N2CCN(CC(=O)Nc3cc(C(F)(F)F)ccc3Cl)CC2)cc1,"inconclusive: 25.1 µM [activator, single point]",–
Cc1ccc(/C(O)=C2\C(=O)C(=O)N(C)C2c2ccccc2[N+](=O)[O-])cc1 (configuration not stated),–,inactive: 0.281%
Brc1ccccc1/C=N/Nc1ccc2ccccc2n1,active: 11.2 µM,–
Nc1ccc(C(=O)OCc2nc3ccccc3s2)cc1,"inconclusive: 31.6 µM [activator, single point]",–
O=C(Cc1ccc(O)cc1)NC1CCCCCC1,"inconclusive: 2.51 µM [activator, single point]",–

# Another view of 3 compounds above:
SMILES	Potency	activity change, negative = inhibition
O=C(CSc1nnc(Cc2cccs2)n1-c1ccccc1)Nc1ccc2c(c1)OCCO2	inconclusive: 35.5 µM [inhibitor, single point]	–
CCCCc1ccc(S(=O)(=O)N/N=C(/C)c2ccncc2)cc1	–	inactive: 0.472%
Cc1ccnc(Nc2nc(-c3c(C)nc4sccn34)cs2)c1	–	inactive: -29.2%

# Additional results.

SMILES,Potency,"activity change, negative = inhibition"
NNC(=O)c1ccc(Cn2cc(Br)c(N)n2)cc1,–,inactive: -4.89%
CCOc1ccc(N2C(=O)c3n[nH]c(-c4cccs4)c3C2c2cccc(F)c2)cc1 (configuration not stated),"inconclusive: 10 µM [inhibitor, partial curve]",–
O=c1[nH]ncc(NCc2ccc(Cl)cc2)c1Cl,"inconclusive: 14.1 µM [inhibitor, single point]",–
CCOC(=O)CSc1nc(N)nc(C)c1Cl,"inconclusive: 6.31 µM [activator, single point]",–
COc1cc(CN2CCN(Cc3ccc(SC)cc3)CC2)cc(OC)c1O,–,inactive: -8.71% [at 46.1 µM]
CCc1nonc1NC(=O)c1oc2ccc(C)cc2c1C,"inconclusive: 14.1 µM [activator, partial curve, poor fit]",–
CCCn1c(SCC(=O)NCc2ccco2)nnc1C(C)C,"inconclusive: 14.1 µM [activator, partial curve, poor fit]",–
COc1cc(NC(=O)C/C(C)=N/NC(=O)C2CCCCC2)c(OC)cc1Cl,"inconclusive: 35.5 µM [inhibitor, single point]",–
CC(NC(=O)c1ccccc1)C(=O)N/N=C/c1cccc([N+](=O)[O-])c1 (configuration not stated),"inconclusive: 20 µM [activator, partial curve, poor fit]",–
O=S(=O)(NCCC1=CCCCC1)c1c(Cl)cccc1Cl,–,inactive: 7.83%
CSc1nc(Sc2ccc(Cl)cc2)c2ccccc2n1,–,inactive: 7.67%
Cc1ccc([N+](=O)[O-])cc1Nc1nc(N2CCOCC2)nc(N2CCOCC2)n1,"inconclusive: 12.6 µM [inhibitor, partial curve, poor fit]",–
CCN(CC)c1ccc2c(c1)oc(=O)c1c(Cl)cc(=O)oc12,"inconclusive: 8.91 µM [inhibitor, partial curve, poor fit]",–
Cc1ccc(/C=N/Nc2cc(C)nc(N3CCOCC3)n2)cc1,"inconclusive: 0.562 µM [inhibitor, full curve]",–
CCCCc1ccc(/C(C)=N/NC(=O)C2CCCC2)cc1,–,inactive: 2.64% [at 46.1 µM]
CCOC(=O)N1CCN(C(=O)CSc2nc3c([nH]c4ccccc43)c(=O)n2CCOC)CC1,–,inactive: -19.7%
CC(Oc1ccccc1Cl)C(=O)Nc1ccc(S(=O)(=O)N2CCOCC2)cc1 (configuration not stated),"inconclusive: 35.5 µM [inhibitor, single point]",–
O=C(O)Cc1sc(Nc2ccccc2)nc1-c1ccccc1,"inconclusive: 35.5 µM [activator, single point]",–
CN(CCOc1ccc(C[C@H](Nc2ccccc2C(=O)c2ccccc2)C(=O)O)cc1)c1ccccn1,inactive,–
Cc1ccc(S(=O)(=O)N2CCN(C(=O)c3ccc(OCc4c(C)noc4C)cc3)CC2)cc1,–,inactive: -10.7% [at 46.1 µM]
CCc1nnc(NC(=O)c2cccc(OC)c2)s1,"inconclusive: 20 µM [inhibitor, partial curve, poor fit]",–
COCC(C)n1c(SCc2cc(C(=O)OC)c(C)o2)nc2ccccc2c1=O (configuration not stated),"inconclusive: 11.2 µM [inhibitor, partial curve, poor fit]",–
CCc1cccc(NC(=O)c2cccc(S(=O)(=O)N3CCN(C)CC3)c2)c1,–,inactive: 11.7% [at 46.1 µM]
CCOc1ccc(NC(=O)COC(=O)C23CC4CC(CC(C4)C2)C3)c([N+](=O)[O-])c1,–,inconclusive: 13% [activator]

# Arranged by molecular weight (falling): some entries from above.
SMILES,Potency,"activity change, negative = inhibition"
COCC(C)n1c(SCc2cc(C(=O)OC)c(C)o2)nc2ccccc2c1=O (configuration not stated),"inconclusive: 11.2 µM [inhibitor, partial curve, poor fit]",–
CC(NC(=O)c1ccccc1)C(=O)N/N=C/c1cccc([N+](=O)[O-])c1 (configuration not stated),"inconclusive: 20 µM [activator, partial curve, poor fit]",–
CCN(CC)c1ccc2c(c1)oc(=O)c1c(Cl)cc(=O)oc12,"inconclusive: 8.91 µM [inhibitor, partial curve, poor fit]",–
